Test results reported in PubChem BioAssay AID624297 (National Center for Advancing Translational Sciences (NCATS), 2012).
Values joined by “and” are separate entries in the source; they are usually repeats but may differ in a detail not shown here. Equal values may be shown once. Hit rate of the full screen: of about 340,000 compounds, about 6,200 (1.8%) were called active. Inconclusive means that the source gave no clear call. Such entries were picked first, then a sample of the others. Calls follow the shape of the dose curve; as a rule, active = well fitted activation curve with a large enough effect; inconclusive = small, poorly fitted or top-dose-only effect; inactive = no such curve, though single readings can be large or run the other way. Where the call is inconclusive, the potency comes from a doubtful curve fit.

test: A quantitative high throughput screen for small molecules that induce DNA re-replication in SW480 colon adenocarcinoma cells.; also: nearly all actives have a fitted effect of over 55% in size; as to re-replication activation: % of control where 0% means no effect; settings: Hoechst DNA content imaging, 48 h; re-replication activation: at 46.1 µM (top of the series)
Method in brief: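 Hoechst fluorescence of nuclei (405 nm excitation, 500-530 nm emission) measured by plate-scanning imager after 48 hr compound exposure at 37 C; re-replication scored as increased number of nuclei with elevated intensity.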
Potency is read from the fitted curve at half-maximal effect.

Compound	Potency	re-replication activation
CCCCCCSc1ccc([C@H]2N[C@@](C)(C(=O)OC)[C@H]3C(=O)N(C)C(=O)[C@@H]23)cc1	inconclusive: 32.6 µM [activator, single point]	
O=C(Nc1ccc(F)cc1)C1(S(=O)(=O)c2ccc(Cl)cc2)CC1	inconclusive: 6.31 µM [activator, partial curve, poor fit]	
COc1ccc(NC(=O)CN(C)CC(=O)NCc2ccc(C)cc2)cc1	inactive	
O=C(CCC1CCCCC1)NNC(=O)c1cnccn1	active: 2.91 µM	
COc1ccc(NC(=S)NC(=NS(=O)(=O)c2ccc(Cl)cc2)c2ccccc2)cc1	inconclusive: 11.6 µM [activator, partial curve, poor fit]	
Cc1ccc(NNC(=O)CCc2ccccc2)c(C)c1	inactive	
C/C(=N\Nc1ccc(F)cc1)c1ccc(N2CCOCC2)c(F)c1	inconclusive: 0.0058 µM [activator, full curve, poor fit]	
CCCc1ccc(C(C)NC(=S)NCc2ccc(F)cc2)cc1 (stereo unspecified)	inconclusive: 29.1 µM [activator, single point]	
CCCCOc1ccc(CSC(=N)N)cc1[N+](=O)[O-]	inconclusive: 29.1 µM [activator, single point]	
COc1cc([N+](=O)[O-])cc(/C=N/NC(=O)C(O)(c2ccccc2)c2ccccc2)c1O	inconclusive: 16.4 µM [activator, partial curve, poor fit]	
C=C(Nc1ccc(OCC)cc1)Nc1ccc(OCC)cc1	inactive	
COc1c(/C=N/NC(=O)[C@H]2C[C@@H]2c2ccccc2)c(CCN(C)C(C)=O)cc2c1OCO2		inactive: -3.68% [at 9.22 µM]
CCCCc1cc(=O)oc2cc(OS(C)(=O)=O)ccc12	inactive	
Cc1cccc(N2CCc3c2nc2ccc(Br)cc2c3N)c1	inactive	
COc1cc2c(cc1[N+](=O)[O-])-c1ccccc1C2	inconclusive: 29.1 µM [activator, single point]	
COCCNC(=O)/C(C#N)=C/c1c(N2CC(C)OC(C)C2)nc2ccccn2c1=O (stereo unspecified)	inconclusive: 3.26 µM [activator, partial curve, poor fit]	
CCOc1ccccc1NC(=O)CSc1nnc2ccc(-c3cccnc3)nn12	inconclusive: 18.4 µM [activator, single point]	
O=C(CN1C(=O)NC2(CCc3ccccc32)C1=O)Nc1ccccc1OC(F)F (stereo unspecified)	inconclusive: 6.51 µM [activator, partial curve, poor fit]	
CC1CCCN(S(=O)(=O)c2ccc(C(=O)Nc3nnc(-c4ccncc4)o3)cc2)C1 (stereo unspecified)	inconclusive: 18.4 µM [activator, partial curve, poor fit]	
Oc1ccc(NC(=S)N=Nc2c(O)[nH]c3ccccc23)cc1	inactive	
CCC(C(=O)NC1CCCCC1)n1nc(C)c2c(C)n(-c3ccccc3)nc2c1=O (stereo unspecified)	inactive	
O=C(Nc1ccc2oc(-c3ccncc3)nc2c1)c1ccc2c(c1)OCCO2	inconclusive: 29.1 µM [activator, single point]	

Compound	Potency	re-replication activation
COc1ccc2[nH]c3c(NCCC4=CCCCC4)ncnc3c2c1	inconclusive: 18.4 µM [activator, single point]	
COc1ccc(NS(=O)(=O)c2ccc(NS(=O)(=O)c3cccc(C(=O)O)c3)cc2)cc1	inactive	
CC(C)c1ccc(S(=O)(=O)N2CCN(C(=O)C3CCCCC3)CC2)cc1	inconclusive: 32.6 µM [activator, single point]	
Cc1cc(C)c(C#N)c(SCc2nc3ccccc3[nH]2)n1	active: 18.4 µM	
O=C(NC(=S)Nc1ccc(CN2CCOCC2)cc1)c1ccc(-c2cccc(Cl)c2)o1	inconclusive: 18.4 µM [activator, single point]	
COc1ccccc1N(CC(=O)N/N=C(\C)c1ccccc1O)S(=O)(=O)c1ccc(C)cc1	active: 4.11 µM	
O=C(CCN1C(=O)S/C(=C\c2ccc(F)cc2)C1=O)Nc1ccc(C(=O)O)c(O)c1	inconclusive: 1.84 µM [activator, full curve, poor fit]	
CCN(Cc1cc2ccccc2[nH]c1=O)S(=O)(=O)c1ccc(OC)cc1	inconclusive: 23.1 µM [activator, single point]	
O=C(O[C@@H](C(=O)O)[C@@H](OC(=O)c1ccccc1)C(=O)O)c1ccccc1	inconclusive: 0.259 µM [activator, single point]	
COc1ccc(N/C=C/c2nc(SC)nnc2C)cc1	active: 14.6 µM	
CN(C(=O)CCS(=O)(=O)c1cc2c(cc1Cl)NC(=O)CO2)C1CCCCC1	inactive	
CN(C)S(=O)(=O)c1cccc(NC(=O)c2cc(-c3cccs3)nn2-c2ccccc2)c1	inconclusive: 0.411 µM [activator, partial curve, poor fit]	
Cc1ccc(/C=N/Nc2ccc(C(=O)O)cc2)s1	inactive	
COc1ccc(-c2ccc(CCC(=O)O)n2CC(=O)Nc2ccccc2C)cc1	inconclusive: 2.82 µM [activator, single point]	
CCCCc1cc(=O)oc2c(C)c(OCC(=O)N3C[C@H]4C[C@@H](C3)c3cccc(=O)n3C4)ccc12	inactive	
O=C(NC1CCCC1)C(c1ccccc1)N(Cc1cccnc1)C(=O)Cc1cccs1 (stereo unspecified)	inconclusive: 6.51 µM [activator, single point]	
C=C1C(=O)C23C(O)C1CCC2C12CCCC(C)(COC(C)=O)C1C(O)C3(O)OC2 (stereo unspecified)	inconclusive: 5.8 µM [activator, partial curve, poor fit]	
CCCC(c1nnnn1CS(=O)(=O)c1ccc(C)cc1)N1CCC(C(N)=O)CC1 (stereo unspecified)	inconclusive: 3.66 µM [activator, full curve, poor fit]	
COCc1c(C(C)C)nc(C(C)C)c(/C=C/[C@@H](O)C[C@@H](O)CC(=O)O)c1-c1ccc(F)cc1	inconclusive: 0.0237 µM [activator, full curve, poor fit]	
C/C(=N\Nc1ccc(S(=O)(=O)N2CCCCC2)cn1)c1cccc(Br)c1	inconclusive: 20.6 µM [activator, single point]	
CC1(C)Cc2c(sc3nc[nH]c(=O)c23)CO1	active: 5.17 µM	
Cc1nc2sc3c(c2c(=O)n1NC(=O)CCBr)CCCC3	inconclusive: 29.1 µM [activator, single point]	

Structures from the list above that contain a cyano group:
Compound	Potency	re-replication activation
COCCNC(=O)/C(C#N)=C/c1c(N2CC(C)OC(C)C2)nc2ccccn2c1=O (stereo unspecified)	inconclusive: 3.26 µM [activator, partial curve, poor fit]	
Cc1cc(C)c(C#N)c(SCc2nc3ccccc3[nH]2)n1	active: 18.4 µM	

Next entries follow:

Compound	Potency	re-replication activation
COc1ccc(CNC(=O)CCC2N=C3c4ccccc4N=C(SCC(=O)NCC4CCCO4)N3C2=O)cc1 (stereo unspecified)	inactive	
CC1CN(C(=O)c2cn3ccccc3n2)CC(C)O1 (stereo unspecified)	inactive	
CCn1cc(C(=O)O)c(=O)c2cc(F)c(N/N=C/c3ccccc3)cc21	inactive	
O=[N+]([O-])c1cccnc1-n1cnc2ccccc21	inconclusive: 29.1 µM [activator, partial curve, poor fit]	
Cc1cc(C(=O)NCCCN2CCN(c3cc(Cl)ccc3C)CC2)n(-c2ccccc2)n1	inconclusive: 20.6 µM [activator, single point]	
CCOC(=O)c1c(CSC(=N)N)n(-c2ccc(Br)cc2)c2cc(Br)c(OC(C)=O)cc12	inconclusive: 29.1 µM [activator, single point] and inconclusive: 25.9 µM [activator, partial curve, poor fit]	
O=C(Nc1ccccc1NC(=O)c1ccccc1F)c1ccccc1F	inactive	
COc1ccc(-c2csc(NC(=S)NC(=O)/C=C/c3ccc(C(C)C)cc3)n2)cc1OC	inconclusive: 29.1 µM [activator, partial curve, poor fit]	
COc1ccc(C(=O)NCc2cccnc2)cc1Br	inactive	
COc1ccc(OC)c(/C(C)=N\NC(=O)c2cc3cc(Cl)ccc3n2C)c1	inconclusive: 29.1 µM [activator, single point]	
Cc1ccc(NS(=O)(=O)c2ccc(Cl)c(C(=O)Nc3ccccc3-c3nc4ccccc4[nH]3)c2)cc1C	active: 8.2 µM	
CN1C[C@@H]2C(c3ccccc3)C3(c4cccnc4)CC2(C3)[C@H]1c1ccccc1 (stereo partly specified)	inconclusive: 6.51 µM [activator, single point]	
C[C@@]12CCC3[C@@](CC[C@@H]4[C@](C)(C(=O)O)CCC[C@@]34C)(C[C@H]1O)C2 (stereo partly specified)	inactive	
CSCC[C@H](NC(=O)OC(C)(C)C)c1nnc(SCc2ccc(F)cc2)o1	inactive	
O=C(CCNC(=O)c1ccccc1Cl)NCC1CCCO1 (stereo unspecified)	inactive	
CCc1nnc(NC(=O)CSc2nc(-c3ccccc3)cc(-c3ccc(F)cc3)c2C#N)s1	active: 10.3 µM	
Cc1oc(-c2cccc(Cl)c2)nc1CN1CCCC(C(=O)NC(C)c2ccc3c(c2)OCCO3)C1 (stereo unspecified)	inconclusive: 25.9 µM [activator, partial curve, poor fit]	
COc1ccccc1N1CCN(CC(O)c2c(C)[nH]c3ccccc23)CC1 (stereo unspecified)	inconclusive: 29.1 µM [activator, single point]	
Cc1ccc(C)c(NC(=O)/C(C#N)=C/c2cn(CC(=O)NCc3ccco3)c3ccccc23)c1	inconclusive: 8.2 µM [activator, partial curve]	
Cc1cccc(NC(=O)CSc2nc(C)c(CC(=O)c3ccc(Br)cc3)c(C)c2C#N)c1C	inactive	
COc1cccc(/C=N/Nc2ccnc(=O)[nH]2)c1O	inconclusive: 2.06 µM [activator, full curve, poor fit]	
CCC(=O)OCC(=O)C1(OC(=O)CC)[C@H](C)C[C@H]2[C@H]3[C@H]([C@@H](O)C[C@@]21C)[C@@]1(C)C=CC(=O)C=C1C[C@H]3Cl (stereo partly specified)	inconclusive: 3.55 µM [activator, partial curve, poor fit]	
